These are yes or no findings as the source states them, for the method shown.
Biological target: BSA (bovine (from the name BSA)) (UniProt P02769)
Assay: far-Western, overlay or dot blot; both purified

By UniProt entry, the sequences of proteins in these tests, tags left out. Residues count along the entry.
UniProt P02769, residues 25-607: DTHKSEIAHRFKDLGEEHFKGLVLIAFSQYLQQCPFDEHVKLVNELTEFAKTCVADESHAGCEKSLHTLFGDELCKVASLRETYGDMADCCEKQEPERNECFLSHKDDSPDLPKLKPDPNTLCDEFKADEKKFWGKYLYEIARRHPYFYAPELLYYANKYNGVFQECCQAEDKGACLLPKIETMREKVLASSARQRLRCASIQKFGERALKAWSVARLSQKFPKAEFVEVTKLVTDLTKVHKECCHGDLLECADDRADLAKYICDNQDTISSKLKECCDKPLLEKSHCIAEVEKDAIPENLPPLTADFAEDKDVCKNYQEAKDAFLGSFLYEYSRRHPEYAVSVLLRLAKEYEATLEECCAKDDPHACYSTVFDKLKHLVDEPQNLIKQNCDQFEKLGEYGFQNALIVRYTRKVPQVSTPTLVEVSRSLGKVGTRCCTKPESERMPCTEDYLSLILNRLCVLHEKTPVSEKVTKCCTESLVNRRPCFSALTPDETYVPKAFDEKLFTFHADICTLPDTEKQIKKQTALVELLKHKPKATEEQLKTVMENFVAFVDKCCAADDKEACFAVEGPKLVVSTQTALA
UniProt P00588, residues 33-225: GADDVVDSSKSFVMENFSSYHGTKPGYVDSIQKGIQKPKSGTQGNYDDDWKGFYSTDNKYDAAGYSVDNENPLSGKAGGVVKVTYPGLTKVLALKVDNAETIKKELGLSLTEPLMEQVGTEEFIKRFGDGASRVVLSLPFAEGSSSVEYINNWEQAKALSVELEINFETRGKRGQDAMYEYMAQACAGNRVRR

DTA, A-subunit of diphtheria toxin (amino acids 1-193) without any tag (from UniProt P00588 33-225) (enzyme)
binding: no binding

Reference: PMC10305195
